The list is a part of this screen's results and no random one: it covers a few groups of compounds. Not every dose and run of a compound is shown. T/C gives the treated animals as a percentage of the vehicle group. Where survival is the endpoint, the PubChem record calls one and a half times the control and up active, and a quarter to a half above the control has no call in these data; cut-offs in other NCI protocols can differ. Some T/C values are marked as having no survivor count here; that says nothing about deaths at the dose. Schedules are NCI's codes, read here as Q, the interval in days (D) or hours (H), X, the number of doses. Some entries were tested several times; the results are listed from low to high. Some schedules carry Z or #; the key to these is not given.
Test system: L1210 leukemia ip in BDF1 mice, survival T/C
Experiment: NCI In Vivo Anticancer Drug Screen. Data for tumor model L1210 Leukemia (intraperitoneal) in B6D2F1 (BDF1) mice
Conditions: T/C endpoint: mean survival time, higher T/C = longer survival
[1] = dose: 50.0 mg/kg/injection, schedule: Q01DX001 (ip), vehicle: saline
[2] = dose: 100.0 mg/kg/injection, schedule: Q01DX001 (ip), vehicle: saline
[3] = dose: 200.0 mg/kg/injection, schedule: Q01DX001 (ip), vehicle: saline
[4] = dose: 12.5 mg/kg/injection, schedule: Q01DX001 (ip), vehicle: saline
[5] = dose: 25.0 mg/kg/injection, schedule: Q01DX001 (ip), vehicle: saline

For `ClCCNCCCCNCCCl`, the T/C (dose: 2.5 mg/kg/injection, schedule: Q#A X034 (ip), vehicle: saline) was 104 % of control [survivor count not shown], the T/C (dose: 5.0 mg/kg/injection, schedule: Q01DX017 (ip), vehicle: saline) was 101 % of control [survivor count not shown] and the T/C (dose: 5.0 mg/kg/injection, schedule: Q#A X034 (ip), vehicle: saline) was 112 % of control [survivor count not shown]. For the same compound, the T/C (dose: 10.0 mg/kg/injection, schedule: Q01DX017 (ip), vehicle: saline) was 113 % of control [survivor count not shown], the T/C (dose: 10.0 mg/kg/injection, schedule: Q02DX009 (ip), vehicle: saline) was 106 % of control [survivor count not shown] and the T/C (dose: 10.0 mg/kg/injection, schedule: Q#A X034 (ip), vehicle: saline) was 126 % of control [survivor count not shown]. For the same compound, the T/C (dose: 11.0 mg/kg/injection, schedule: Q01DX Z (ip), vehicle: saline) was 113 % of control [survivor count not shown], the T/C (dose: 17.0 mg/kg/injection, schedule: Q01DX Z (ip), vehicle: saline) was 130 % of control [survivor count not shown] and the T/C (dose: 20.0 mg/kg/injection, schedule: Q01DX017 (ip), vehicle: saline) was 184 % of control [survivor count not shown]. For the same compound, the T/C (dose: 20.0 mg/kg/injection, schedule: Q02DX009 (ip), vehicle: saline) was 119 % of control [survivor count not shown], the T/C (dose: 20.0 mg/kg/injection, schedule: Q#A X034 (ip), vehicle: saline) was 147 % of control [survivor count not shown] and the T/C (dose: 25.0 mg/kg/injection, schedule: Q01DX Z (ip), vehicle: saline) was 133 [survivor count not shown], 138 [survivor count not shown], 142 % of control [survivor count not shown]. The T/C (dose: 37.0 mg/kg/injection, schedule: Q01DX Z (ip), vehicle: saline) was 148 [survivor count not shown], 163 [survivor count not shown], 170 % of control [survivor count not shown], the T/C (dose: 40.0 mg/kg/injection, schedule: Q01DX017 (ip), vehicle: saline) was 150 % of control [survivor count not shown] and the T/C (dose: 40.0 mg/kg/injection, schedule: Q02DX009 (ip), vehicle: saline) was 138 % of control [survivor count not shown]. For the same compound, the T/C (dose: 40.0 mg/kg/injection, schedule: Q#A X034 (ip), vehicle: saline) was 97 % of control [survivor count not shown], the T/C [1] was 135 % of control [survivor count not shown] and the T/C (dose: 55.0 mg/kg/injection, schedule: Q01DX Z (ip), vehicle: saline) was 144 % of control [survivor count not shown]. For the same compound, the T/C (dose: 56.0 mg/kg/injection, schedule: Q01DX Z (ip), vehicle: saline) was 97 [survivor count not shown] and 172 % of control [survivor count not shown], the T/C (dose: 80.0 mg/kg/injection, schedule: Q01DX017 (ip), vehicle: saline) was 117 % of control [survivor count not shown] and the T/C (dose: 80.0 mg/kg/injection, schedule: Q02DX009 (ip), vehicle: saline) was 136 % of control [survivor count not shown]. The T/C (dose: 84.0 mg/kg/injection, schedule: Q01DX Z (ip), vehicle: saline) was 93 [survivor count not shown], 127 [survivor count not shown], 155 % of control [survivor count not shown], the T/C [2] was 137 % of control [survivor count not shown] and the T/C (dose: 125.0 mg/kg/injection, schedule: Q01DX Z (ip), vehicle: saline) was 100 % of control [survivor count not shown]. The T/C (dose: 160.0 mg/kg/injection, schedule: Q02DX009 (ip), vehicle: saline) was 100 % of control [survivor count not shown] and the T/C [3] was 164 % of control [survivor count not shown].
For `FC(F)(F)c1cccc(CN(CCCl)CCCl)c1`, the T/C [4] was 94 % of control [survivor count not shown], the T/C [5] was 100 % of control [survivor count not shown] and the T/C [1] was 111 % of control [survivor count not shown]. The T/C [2] was 116 % of control [survivor count not shown].
In the case of `CC(C)N(CCCCOC(=O)C(O)(c1ccccc1)c1ccccc1)C(C)C`, the T/C (dose: 25.0 mg/kg/injection, schedule: Q04DX003 (ip), vehicle: saline) is reported as 102 % of control [survivor count not shown], the T/C (dose: 50.0 mg/kg/injection, schedule: Q04DX003 (ip), vehicle: saline) is reported as 96 % of control [survivor count not shown] and the T/C (dose: 75.0 mg/kg/injection, schedule: Q04DX003 (ip), vehicle: saline) is reported as 97 [survivor count not shown] and 98 % of control [survivor count not shown].
For `O=C(OC1CCN2CCCC12)C(O)(c1ccccc1)c1ccccc1` (stereo not drawn), the T/C (dose: 50.0 mg/kg/injection, schedule: Q01DX009 (ip), vehicle: saline with Tween-80) was 101 % of control [survivor count not shown], the T/C (dose: 100.0 mg/kg/injection, schedule: Q01DX009 (ip), vehicle: saline with Tween-80) was 101 % of control [survivor count not shown] and the T/C (dose: 100.0 mg/kg/injection, schedule: Q04DX003 (ip), vehicle: saline with Tween-80) was 105 % of control [survivor count not shown]. For the same compound, the T/C (dose: 200.0 mg/kg/injection, schedule: Q01DX009 (ip), vehicle: saline with Tween-80) was 97 % of control [survivor count not shown] and the T/C (dose: 200.0 mg/kg/injection, schedule: Q04DX003 (ip), vehicle: saline with Tween-80) was 96 % of control [survivor count not shown].
With `O=C(SC1CN2CCC1CC2)C(O)(c1ccccc1)c1ccccc1` (stereo not drawn) the T/C (dose: 50.0 mg/kg/injection, schedule: Q04DX002 (ip), vehicle: saline with Tween-80) was 105 % of control [survivor count not shown], the T/C (dose: 100.0 mg/kg/injection, schedule: Q04DX002 (ip), vehicle: saline with Tween-80) was 94 % of control [survivor count not shown] and the T/C (dose: 200.0 mg/kg/injection, schedule: Q04DX002 (ip), vehicle: saline with Tween-80) was 88 % of control [survivor count not shown].
For `ClCCN(CCCl)C12CC3CC(CC(C3)C1)C2`, the T/C (dose: 0.11 mg/kg/injection, schedule: Q01DX009 (ip), vehicle: saline with Tween-80) was 124 % of control [survivor count not shown], the T/C (dose: 0.16 mg/kg/injection, schedule: Q01DX009 (ip), vehicle: saline with Tween-80) was 137 % of control [survivor count not shown] and the T/C (dose: 0.25 mg/kg/injection, schedule: Q01DX009 (ip), vehicle: saline with Tween-80) was 113 [survivor count not shown] and 132 % of control [survivor count not shown]. For the same compound, the T/C (dose: 0.39 mg/kg/injection, schedule: Q01DX009 (ip), vehicle: saline with Tween-80) was 114 [survivor count not shown], 119 [survivor count not shown], 132 % of control [survivor count not shown], the T/C (dose: 0.39 mg/kg/injection, schedule: Q04DX003 (ip), vehicle: saline with Tween-80) was 107 % of control [survivor count not shown] and the T/C (dose: 0.51 mg/kg/injection, schedule: Q01DX009 (ip), vehicle: saline with Tween-80) was 103 % of control [survivor count not shown]. For the same compound, the T/C (dose: 0.78 mg/kg/injection, schedule: Q01DX009 (ip), vehicle: saline with Tween-80) was 119 [survivor count not shown], 122 [survivor count not shown], 134 % of control [survivor count not shown], the T/C (dose: 0.78 mg/kg/injection, schedule: Q04DX003 (ip), vehicle: saline with Tween-80) was 114 % of control [survivor count not shown] and the T/C (dose: 1.2 mg/kg/injection, schedule: Q01DX009 (ip), vehicle: saline with Tween-80) was 114 [survivor count not shown] and 141 % of control [survivor count not shown]. For the same compound, the T/C (dose: 1.56 mg/kg/injection, schedule: Q01DX009 (ip), vehicle: saline with Tween-80) was 94 % of control [survivor count not shown], the T/C (dose: 1.56 mg/kg/injection, schedule: Q04DX003 (ip), vehicle: saline with Tween-80) was 112 % of control [survivor count not shown] and the T/C (dose: 1.7 mg/kg/injection, schedule: Q01DX009 (ip), vehicle: saline with Tween-80) was 121 % of control [survivor count not shown].
For `CCCCCN(CCCl)CCCl`, the T/C [4] was 122 % of control [survivor count not shown] and the T/C [5] was 90 % of control [survivor count not shown].
With `CCNCCCl` the T/C [2] was 98 % of control [survivor count not shown], the T/C [3] was 102 % of control [survivor count not shown] and the T/C (dose: 400.0 mg/kg/injection, schedule: Q01DX001 (ip), vehicle: saline) was 111 % of control [survivor count not shown].

Reference: PubChem BioAssay AID248 (DTP/NCI, 2004)
